The target of one experiment is FLT3 (human) (UniProt P36888). As to the kind of experiment: affinity purification with mass spectrometry.
Another experiment concerns the target T1, DDR2 (human) (UniProt Q16832).
T1 sequence: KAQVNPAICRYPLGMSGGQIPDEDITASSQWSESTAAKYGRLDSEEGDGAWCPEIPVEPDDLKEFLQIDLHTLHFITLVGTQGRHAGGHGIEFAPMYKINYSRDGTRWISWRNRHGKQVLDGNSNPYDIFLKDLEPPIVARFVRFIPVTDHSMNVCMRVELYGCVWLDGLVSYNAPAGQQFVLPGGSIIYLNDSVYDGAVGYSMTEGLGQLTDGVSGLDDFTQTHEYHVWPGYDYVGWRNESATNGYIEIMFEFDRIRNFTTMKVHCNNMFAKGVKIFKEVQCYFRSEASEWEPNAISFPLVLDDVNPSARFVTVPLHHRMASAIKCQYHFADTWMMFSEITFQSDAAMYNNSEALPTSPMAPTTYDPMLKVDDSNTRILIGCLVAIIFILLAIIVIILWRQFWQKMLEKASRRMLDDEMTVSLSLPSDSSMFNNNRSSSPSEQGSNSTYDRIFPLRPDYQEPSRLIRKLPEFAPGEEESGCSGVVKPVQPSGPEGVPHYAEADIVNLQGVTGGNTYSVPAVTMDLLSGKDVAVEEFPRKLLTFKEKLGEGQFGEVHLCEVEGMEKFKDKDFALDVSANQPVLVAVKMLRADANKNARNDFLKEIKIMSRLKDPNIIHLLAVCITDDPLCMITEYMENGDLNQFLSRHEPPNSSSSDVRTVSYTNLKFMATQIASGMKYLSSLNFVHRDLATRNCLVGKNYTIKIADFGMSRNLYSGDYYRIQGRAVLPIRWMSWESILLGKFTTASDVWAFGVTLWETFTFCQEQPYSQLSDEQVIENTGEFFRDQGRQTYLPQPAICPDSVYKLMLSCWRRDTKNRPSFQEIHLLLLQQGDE
The experiment can be described thus: affinity purification with mass spectrometry.

Amino acid sequences for entries named in this document (tags omitted). Residues count along the entry.
UniProt P36888, residues 27-993: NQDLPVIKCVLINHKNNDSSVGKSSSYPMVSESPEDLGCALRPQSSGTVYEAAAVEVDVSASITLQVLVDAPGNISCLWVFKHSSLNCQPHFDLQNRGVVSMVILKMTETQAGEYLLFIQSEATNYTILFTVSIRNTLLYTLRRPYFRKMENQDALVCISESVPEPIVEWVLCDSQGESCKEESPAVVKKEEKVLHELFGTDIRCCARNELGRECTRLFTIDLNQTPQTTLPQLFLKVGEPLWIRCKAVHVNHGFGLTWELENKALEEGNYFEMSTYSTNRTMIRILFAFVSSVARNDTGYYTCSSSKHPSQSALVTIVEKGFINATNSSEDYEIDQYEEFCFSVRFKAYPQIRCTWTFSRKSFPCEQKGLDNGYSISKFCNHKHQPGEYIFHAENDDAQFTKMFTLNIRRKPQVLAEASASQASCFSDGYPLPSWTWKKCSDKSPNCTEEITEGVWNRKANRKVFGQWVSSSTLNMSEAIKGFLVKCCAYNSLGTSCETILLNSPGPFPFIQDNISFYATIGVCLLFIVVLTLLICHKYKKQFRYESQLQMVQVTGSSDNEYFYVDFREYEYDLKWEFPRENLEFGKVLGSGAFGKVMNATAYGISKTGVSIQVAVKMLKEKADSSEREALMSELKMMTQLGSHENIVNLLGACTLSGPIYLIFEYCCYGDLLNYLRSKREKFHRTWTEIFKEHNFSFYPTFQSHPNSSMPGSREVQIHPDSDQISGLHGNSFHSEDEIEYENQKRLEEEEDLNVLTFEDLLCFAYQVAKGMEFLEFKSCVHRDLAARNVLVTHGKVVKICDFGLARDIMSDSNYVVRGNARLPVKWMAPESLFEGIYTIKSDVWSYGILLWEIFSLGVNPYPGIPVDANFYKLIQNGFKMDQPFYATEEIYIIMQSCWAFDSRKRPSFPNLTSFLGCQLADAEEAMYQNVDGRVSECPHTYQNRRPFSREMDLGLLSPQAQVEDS
UniProt P50750: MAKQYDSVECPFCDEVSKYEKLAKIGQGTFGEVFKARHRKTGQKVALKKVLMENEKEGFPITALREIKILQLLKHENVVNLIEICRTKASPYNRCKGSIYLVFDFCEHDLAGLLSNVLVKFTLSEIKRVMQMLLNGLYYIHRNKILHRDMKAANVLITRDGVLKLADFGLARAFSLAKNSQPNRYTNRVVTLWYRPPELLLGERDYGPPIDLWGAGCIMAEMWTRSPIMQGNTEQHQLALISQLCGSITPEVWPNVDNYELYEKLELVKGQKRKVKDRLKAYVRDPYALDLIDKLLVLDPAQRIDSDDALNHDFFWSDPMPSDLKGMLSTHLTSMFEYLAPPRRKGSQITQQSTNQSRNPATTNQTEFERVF
UniProt P35749: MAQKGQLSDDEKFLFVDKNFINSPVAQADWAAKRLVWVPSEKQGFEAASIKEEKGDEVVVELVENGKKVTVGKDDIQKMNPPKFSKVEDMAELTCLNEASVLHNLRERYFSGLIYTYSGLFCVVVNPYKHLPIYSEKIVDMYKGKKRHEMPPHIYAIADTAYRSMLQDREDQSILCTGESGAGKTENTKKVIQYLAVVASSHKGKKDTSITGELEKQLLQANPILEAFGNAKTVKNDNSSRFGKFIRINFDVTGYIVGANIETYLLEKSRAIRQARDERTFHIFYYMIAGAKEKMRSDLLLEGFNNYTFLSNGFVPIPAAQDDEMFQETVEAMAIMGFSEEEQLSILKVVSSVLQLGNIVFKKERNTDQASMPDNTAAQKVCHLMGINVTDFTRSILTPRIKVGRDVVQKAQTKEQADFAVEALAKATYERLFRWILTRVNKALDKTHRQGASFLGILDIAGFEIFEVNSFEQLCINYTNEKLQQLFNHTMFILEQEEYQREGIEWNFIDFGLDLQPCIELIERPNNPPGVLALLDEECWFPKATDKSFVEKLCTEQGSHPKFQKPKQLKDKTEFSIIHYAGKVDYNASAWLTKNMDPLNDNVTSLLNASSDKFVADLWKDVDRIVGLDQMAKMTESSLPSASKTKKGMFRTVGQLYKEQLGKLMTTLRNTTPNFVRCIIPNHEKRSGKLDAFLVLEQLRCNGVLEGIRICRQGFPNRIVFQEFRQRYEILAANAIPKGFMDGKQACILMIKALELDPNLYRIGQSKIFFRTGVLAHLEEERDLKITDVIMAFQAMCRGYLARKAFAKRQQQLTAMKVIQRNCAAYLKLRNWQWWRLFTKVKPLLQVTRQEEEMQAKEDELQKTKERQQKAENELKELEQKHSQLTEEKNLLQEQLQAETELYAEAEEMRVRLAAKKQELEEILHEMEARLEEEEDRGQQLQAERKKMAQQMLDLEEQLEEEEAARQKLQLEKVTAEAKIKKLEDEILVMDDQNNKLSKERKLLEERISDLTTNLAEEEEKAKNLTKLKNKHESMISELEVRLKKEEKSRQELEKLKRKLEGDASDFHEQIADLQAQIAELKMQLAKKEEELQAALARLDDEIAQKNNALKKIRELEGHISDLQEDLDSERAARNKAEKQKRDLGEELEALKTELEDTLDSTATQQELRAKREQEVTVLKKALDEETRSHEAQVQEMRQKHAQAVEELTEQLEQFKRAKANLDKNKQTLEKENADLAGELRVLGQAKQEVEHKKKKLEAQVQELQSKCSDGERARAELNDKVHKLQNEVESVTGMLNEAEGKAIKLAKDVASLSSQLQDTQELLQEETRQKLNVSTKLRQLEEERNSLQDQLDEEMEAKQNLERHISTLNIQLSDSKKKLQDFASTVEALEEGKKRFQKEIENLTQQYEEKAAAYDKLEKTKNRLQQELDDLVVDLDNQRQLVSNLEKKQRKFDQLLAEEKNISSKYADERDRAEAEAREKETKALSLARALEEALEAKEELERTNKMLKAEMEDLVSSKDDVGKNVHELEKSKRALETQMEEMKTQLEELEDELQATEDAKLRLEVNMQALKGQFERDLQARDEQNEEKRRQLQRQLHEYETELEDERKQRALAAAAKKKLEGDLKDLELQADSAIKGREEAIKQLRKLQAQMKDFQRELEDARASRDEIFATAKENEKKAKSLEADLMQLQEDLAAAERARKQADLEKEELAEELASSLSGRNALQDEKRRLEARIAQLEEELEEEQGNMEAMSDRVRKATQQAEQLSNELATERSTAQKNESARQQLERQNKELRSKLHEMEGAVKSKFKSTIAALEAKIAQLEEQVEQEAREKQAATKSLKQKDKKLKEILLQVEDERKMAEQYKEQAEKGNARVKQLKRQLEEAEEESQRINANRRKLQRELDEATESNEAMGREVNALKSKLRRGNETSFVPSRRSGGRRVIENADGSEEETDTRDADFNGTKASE

These are yes or no findings as the source states them, for the method shown. In cells and extracts the contact can be indirect. Here binding means that the protein was enriched with, or labelled near, the bait; the list need not be complete.

On to “CDK9 (from UniProt P50750 1-372) (enzyme)”, for which the binding result in the experiment with FLT3 (human) is on record as “binds”.

As to DNAH8 (from UniProt Q96JB1 1-4490), in the experiment with DDR2 (human), the binding result was “binds”.

As to DOCK1 (from UniProt Q14185 1-1865), the binding result in the experiment with DDR2 (human) was “binds”.

MYH11 (from UniProt P35749 1-1972): the binding result with DDR2 (human) is “binds”.

Source of the values: doi:10.1101/2020.07.02.185173.
